Some of the results follow.
compound: C1=CC=C2C(=C1)C3=NNC4=CC=CC(=C43)C2=O; test: log2 fold change, soluble protein after heating vs DMSO (PISA); higher = thermal stabilisation; K562 cells, 10 uM, 30 min; active = over 0.2 and 3.5 SD of the protein, either way, in both replicates (recomputed)
Procedure, shortened: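 K562 cells at 2×10^6 cells/mL were treated with 10 μM compound for 30 min. Aliquots were heated for 3 min across 48°C-58°C, pooled, and extracted in PBS with 0.5% NP-40 at 4°C; soluble protein was the supernatant after 21,000xg for 90 min. Soluble protein was quantified by TMTpro 16plex LC-MS/MS with channel sums equalised, and reported as log2 fold change in thermal stability against DMSO controls, with values from duplicates.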

Sequences of proteins named here, by UniProt entry; tags and fusion partners are left off. A change or cut given only in a name is not applied to a line headed by its entry.
UniProt P53778: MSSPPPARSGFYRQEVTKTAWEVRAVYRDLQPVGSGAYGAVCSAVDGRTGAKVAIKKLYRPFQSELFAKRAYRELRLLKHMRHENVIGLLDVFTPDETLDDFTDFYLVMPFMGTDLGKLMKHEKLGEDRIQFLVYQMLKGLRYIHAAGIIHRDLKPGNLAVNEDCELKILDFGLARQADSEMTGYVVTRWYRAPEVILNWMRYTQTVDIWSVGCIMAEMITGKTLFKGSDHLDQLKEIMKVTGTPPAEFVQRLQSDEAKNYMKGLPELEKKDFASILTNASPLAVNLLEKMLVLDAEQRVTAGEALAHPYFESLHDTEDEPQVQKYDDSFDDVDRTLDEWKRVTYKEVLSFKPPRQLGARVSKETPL
UniProt P20645: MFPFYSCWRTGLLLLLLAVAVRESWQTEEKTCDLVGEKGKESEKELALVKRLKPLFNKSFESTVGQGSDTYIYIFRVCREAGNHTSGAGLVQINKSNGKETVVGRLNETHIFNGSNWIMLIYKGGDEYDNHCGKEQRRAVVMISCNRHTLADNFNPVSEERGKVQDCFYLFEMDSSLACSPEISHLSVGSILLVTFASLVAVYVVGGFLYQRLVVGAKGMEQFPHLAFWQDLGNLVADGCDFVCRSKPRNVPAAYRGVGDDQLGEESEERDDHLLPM
UniProt P62312: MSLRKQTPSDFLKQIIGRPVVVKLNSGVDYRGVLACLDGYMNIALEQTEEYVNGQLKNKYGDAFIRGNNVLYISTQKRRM
UniProt O60337: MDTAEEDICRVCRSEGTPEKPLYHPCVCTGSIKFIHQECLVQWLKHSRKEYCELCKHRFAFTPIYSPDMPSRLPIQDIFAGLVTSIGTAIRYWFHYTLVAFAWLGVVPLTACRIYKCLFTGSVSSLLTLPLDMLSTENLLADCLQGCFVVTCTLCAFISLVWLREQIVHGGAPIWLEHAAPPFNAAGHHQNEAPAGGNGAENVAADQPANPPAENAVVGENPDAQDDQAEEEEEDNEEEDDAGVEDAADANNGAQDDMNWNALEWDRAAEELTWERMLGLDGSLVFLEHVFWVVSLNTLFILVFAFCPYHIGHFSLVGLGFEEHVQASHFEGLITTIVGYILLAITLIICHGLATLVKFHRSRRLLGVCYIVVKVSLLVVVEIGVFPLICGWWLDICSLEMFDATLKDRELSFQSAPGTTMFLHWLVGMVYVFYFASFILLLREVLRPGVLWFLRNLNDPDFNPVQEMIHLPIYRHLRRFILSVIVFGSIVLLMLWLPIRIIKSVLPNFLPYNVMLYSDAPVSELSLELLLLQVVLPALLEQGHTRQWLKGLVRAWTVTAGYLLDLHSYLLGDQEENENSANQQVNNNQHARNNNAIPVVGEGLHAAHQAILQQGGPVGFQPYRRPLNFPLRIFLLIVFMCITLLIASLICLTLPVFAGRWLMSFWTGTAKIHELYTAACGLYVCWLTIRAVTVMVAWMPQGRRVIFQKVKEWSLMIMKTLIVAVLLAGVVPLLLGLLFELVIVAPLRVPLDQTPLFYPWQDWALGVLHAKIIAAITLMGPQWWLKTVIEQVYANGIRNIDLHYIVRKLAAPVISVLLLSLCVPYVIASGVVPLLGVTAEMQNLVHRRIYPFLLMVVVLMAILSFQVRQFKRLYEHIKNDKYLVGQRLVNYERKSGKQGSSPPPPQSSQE
UniProt Q14766: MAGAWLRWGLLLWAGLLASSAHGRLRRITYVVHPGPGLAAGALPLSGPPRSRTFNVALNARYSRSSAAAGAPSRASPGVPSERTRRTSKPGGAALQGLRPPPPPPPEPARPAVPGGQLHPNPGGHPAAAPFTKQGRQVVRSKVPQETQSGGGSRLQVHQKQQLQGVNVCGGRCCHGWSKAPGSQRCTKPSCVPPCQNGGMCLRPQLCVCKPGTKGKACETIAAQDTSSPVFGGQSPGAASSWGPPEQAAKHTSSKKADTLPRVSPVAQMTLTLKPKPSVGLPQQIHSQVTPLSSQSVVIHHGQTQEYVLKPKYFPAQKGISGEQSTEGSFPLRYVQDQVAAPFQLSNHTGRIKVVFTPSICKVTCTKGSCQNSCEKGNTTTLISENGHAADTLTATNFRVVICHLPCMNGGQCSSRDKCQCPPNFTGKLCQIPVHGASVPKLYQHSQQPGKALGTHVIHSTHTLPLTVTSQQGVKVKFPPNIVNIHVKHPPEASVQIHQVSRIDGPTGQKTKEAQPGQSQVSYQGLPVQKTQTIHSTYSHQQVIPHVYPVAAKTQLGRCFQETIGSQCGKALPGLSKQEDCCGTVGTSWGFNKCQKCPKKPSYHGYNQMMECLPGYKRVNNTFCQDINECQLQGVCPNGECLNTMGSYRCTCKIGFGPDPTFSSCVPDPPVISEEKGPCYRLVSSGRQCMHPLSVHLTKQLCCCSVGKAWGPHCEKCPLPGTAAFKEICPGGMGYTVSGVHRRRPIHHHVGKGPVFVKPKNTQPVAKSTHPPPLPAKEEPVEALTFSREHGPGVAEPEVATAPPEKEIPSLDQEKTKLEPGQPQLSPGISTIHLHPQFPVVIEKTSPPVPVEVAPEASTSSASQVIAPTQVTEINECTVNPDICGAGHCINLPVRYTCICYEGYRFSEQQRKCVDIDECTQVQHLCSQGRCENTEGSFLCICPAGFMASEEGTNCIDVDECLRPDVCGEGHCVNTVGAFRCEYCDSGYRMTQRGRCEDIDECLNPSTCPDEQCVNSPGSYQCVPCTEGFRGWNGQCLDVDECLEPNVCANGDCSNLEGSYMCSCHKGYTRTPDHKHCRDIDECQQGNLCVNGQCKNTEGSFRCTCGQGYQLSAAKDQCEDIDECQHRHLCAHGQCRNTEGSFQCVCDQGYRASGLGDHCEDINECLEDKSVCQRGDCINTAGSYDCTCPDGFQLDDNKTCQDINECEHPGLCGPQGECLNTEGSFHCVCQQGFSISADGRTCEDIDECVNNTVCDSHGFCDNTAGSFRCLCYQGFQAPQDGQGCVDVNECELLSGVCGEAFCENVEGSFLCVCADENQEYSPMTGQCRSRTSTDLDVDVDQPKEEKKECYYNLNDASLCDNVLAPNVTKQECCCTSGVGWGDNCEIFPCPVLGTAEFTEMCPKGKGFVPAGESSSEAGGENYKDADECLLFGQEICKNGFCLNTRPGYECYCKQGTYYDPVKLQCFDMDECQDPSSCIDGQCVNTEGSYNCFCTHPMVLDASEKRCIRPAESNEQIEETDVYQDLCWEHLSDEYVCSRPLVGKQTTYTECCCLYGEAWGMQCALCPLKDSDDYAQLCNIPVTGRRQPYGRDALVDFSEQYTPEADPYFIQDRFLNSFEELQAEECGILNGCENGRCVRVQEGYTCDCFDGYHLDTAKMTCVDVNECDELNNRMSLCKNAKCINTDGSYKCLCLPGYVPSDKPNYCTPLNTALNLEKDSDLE
UniProt Q9NTJ4: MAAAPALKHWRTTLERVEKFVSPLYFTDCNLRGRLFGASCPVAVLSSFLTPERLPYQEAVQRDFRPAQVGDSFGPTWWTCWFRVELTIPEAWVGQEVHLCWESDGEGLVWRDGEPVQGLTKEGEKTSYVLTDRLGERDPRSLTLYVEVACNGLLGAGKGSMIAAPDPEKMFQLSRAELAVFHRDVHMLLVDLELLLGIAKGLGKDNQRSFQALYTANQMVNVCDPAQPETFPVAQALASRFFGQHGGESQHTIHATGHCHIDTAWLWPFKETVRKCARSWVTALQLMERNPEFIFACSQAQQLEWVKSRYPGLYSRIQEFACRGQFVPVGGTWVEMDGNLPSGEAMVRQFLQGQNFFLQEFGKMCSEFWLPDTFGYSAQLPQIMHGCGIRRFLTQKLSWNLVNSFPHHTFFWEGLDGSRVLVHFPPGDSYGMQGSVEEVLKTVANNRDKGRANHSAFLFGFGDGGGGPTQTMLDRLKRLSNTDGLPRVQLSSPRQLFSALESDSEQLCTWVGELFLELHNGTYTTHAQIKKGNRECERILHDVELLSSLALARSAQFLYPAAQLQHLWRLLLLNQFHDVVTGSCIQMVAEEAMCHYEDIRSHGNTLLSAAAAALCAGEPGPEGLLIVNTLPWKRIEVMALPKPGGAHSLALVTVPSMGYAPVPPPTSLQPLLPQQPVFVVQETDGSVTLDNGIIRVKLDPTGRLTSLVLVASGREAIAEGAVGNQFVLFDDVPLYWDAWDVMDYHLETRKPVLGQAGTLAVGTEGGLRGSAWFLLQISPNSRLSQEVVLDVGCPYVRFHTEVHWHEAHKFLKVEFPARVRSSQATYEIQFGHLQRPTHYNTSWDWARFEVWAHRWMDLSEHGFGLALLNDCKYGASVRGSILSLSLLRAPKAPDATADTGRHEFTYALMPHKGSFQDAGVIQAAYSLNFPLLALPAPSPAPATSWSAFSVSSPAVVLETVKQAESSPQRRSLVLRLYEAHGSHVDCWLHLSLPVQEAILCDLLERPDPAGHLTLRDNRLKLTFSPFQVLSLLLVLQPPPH
UniProt Q13257, whole entry, looked up: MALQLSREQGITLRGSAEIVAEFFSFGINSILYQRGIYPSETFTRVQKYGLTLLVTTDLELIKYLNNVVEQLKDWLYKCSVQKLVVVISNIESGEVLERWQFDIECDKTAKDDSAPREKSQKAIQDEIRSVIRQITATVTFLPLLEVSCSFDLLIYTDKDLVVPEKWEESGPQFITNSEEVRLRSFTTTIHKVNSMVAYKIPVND
UniProt P49006: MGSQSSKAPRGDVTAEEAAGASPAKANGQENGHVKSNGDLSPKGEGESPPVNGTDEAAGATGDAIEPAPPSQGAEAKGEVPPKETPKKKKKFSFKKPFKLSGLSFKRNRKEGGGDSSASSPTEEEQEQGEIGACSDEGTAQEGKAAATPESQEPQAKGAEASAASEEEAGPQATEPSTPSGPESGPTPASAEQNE
UniProt O95372: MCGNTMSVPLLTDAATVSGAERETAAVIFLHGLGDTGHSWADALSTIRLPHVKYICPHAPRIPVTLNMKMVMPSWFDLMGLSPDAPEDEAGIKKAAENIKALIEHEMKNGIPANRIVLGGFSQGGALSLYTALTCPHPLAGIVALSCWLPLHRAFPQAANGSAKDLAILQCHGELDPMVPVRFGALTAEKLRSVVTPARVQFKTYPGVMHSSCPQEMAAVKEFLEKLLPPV
UniProt Q9UPY8, whole entry, looked up: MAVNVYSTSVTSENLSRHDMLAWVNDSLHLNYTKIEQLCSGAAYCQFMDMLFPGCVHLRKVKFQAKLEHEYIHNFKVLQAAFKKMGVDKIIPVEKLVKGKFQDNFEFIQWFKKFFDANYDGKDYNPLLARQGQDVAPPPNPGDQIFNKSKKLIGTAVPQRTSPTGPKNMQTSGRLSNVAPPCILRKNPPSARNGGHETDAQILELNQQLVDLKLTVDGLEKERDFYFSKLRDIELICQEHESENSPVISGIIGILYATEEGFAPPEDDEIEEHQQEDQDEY
UniProt O15479: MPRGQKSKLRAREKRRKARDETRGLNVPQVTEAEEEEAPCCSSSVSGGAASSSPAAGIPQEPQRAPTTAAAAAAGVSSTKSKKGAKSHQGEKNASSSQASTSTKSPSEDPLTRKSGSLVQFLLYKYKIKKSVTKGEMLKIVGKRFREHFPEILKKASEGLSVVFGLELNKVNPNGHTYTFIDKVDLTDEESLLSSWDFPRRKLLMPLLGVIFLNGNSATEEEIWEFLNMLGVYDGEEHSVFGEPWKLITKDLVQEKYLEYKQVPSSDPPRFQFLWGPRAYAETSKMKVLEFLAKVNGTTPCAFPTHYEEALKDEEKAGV
UniProt P12980: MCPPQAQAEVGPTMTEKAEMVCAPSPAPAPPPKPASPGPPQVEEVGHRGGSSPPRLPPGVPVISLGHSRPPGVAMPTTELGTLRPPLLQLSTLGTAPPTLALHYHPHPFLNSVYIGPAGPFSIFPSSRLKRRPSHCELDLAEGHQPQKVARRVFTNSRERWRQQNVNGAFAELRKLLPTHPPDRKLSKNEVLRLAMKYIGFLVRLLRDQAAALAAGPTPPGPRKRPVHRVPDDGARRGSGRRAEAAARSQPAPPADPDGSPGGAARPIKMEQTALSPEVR
UniProt Q9HD34: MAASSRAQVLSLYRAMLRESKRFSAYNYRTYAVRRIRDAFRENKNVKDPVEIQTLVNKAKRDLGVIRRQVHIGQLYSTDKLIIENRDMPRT
UniProt Q5U5X0: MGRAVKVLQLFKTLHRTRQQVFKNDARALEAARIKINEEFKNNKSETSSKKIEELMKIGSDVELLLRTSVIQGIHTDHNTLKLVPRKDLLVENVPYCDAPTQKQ
UniProt Q9NQ29: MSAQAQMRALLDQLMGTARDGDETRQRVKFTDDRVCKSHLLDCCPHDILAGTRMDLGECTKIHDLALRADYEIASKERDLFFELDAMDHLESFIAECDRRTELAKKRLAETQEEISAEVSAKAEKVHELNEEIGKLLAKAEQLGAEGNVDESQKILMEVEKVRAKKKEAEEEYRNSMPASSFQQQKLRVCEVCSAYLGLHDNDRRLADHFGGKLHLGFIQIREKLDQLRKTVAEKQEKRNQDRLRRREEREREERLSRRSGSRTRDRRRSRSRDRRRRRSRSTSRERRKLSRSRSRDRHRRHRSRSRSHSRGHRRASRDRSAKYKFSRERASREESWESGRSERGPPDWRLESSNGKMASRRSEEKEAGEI

log2 fold change, inactive:
MAP4 (UniProt E7EVA0) -0.003
MAPK12 (UniProt P53778) 0.003
M6PR (UniProt P20645) 0.003
LRSAM1 (UniProt Q6UWE0) 0.048
LSM6 (UniProt P62312) -0.018
MAN1A2 (UniProt O60476) 0.016
MAP2K3 isoform 3 (UniProt P46734) -0.057
MARCHF6 (UniProt O60337) -0.116
LTBP1 isoform 4 (UniProt Q14766) 0.047
LRRFIP1 (UniProt Q32MZ4) -0.042
MAGEA9 (UniProt P43362) -0.058
MAK16 (UniProt Q9BXY0) 0.001
LYZ (UniProt P61626) -0.001
MAN2C1 isoform 4 (UniProt Q9NTJ4) 0.023
MAP7D1 (UniProt Q3KQU3) 0.048
MAD2L1 (UniProt Q13257) 0.007
MARCKSL1 (UniProt P49006) -0.063
LYPLA2 (UniProt O95372) -0.016
MADD isoform 2 (UniProt Q8WXG6) -0.104
MAPRE3 (UniProt Q9UPY8) 0
LSM14A isoform 2 (UniProt Q8ND56) 0.038
MAGEB2 (UniProt O15479) -0.116
MACROD1 (UniProt Q9BQ69) -0.004
LYPLAL1 (UniProt Q5VWZ2) 0.017
MAP1B (UniProt P46821) -0.014
LYL1 (UniProt P12980) 0.002
MACF1 (UniProt Q9UPN3) -0.005
MAN2A1 (UniProt Q16706) -0.044
MARCHF5 (UniProt Q9NX47) -0.048
LYRM4 (UniProt Q9HD34) 0.018
LYRM7 (UniProt Q5U5X0) 0.011
MAPKAPK5 (UniProt Q8IW41) 0.025
LUC7L (UniProt Q9NQ29) -0.016

As a working copy, part of the list above:
log2 fold change, inactive:
MAN2C1 isoform 4 (UniProt Q9NTJ4) 0.023
MAP7D1 (UniProt Q3KQU3) 0.048

Reference: the supplement of paper PMC10849652
